Reference: the supplement of paper PMC11006884
The list shows a part of the results, in another mix than the full data.

Amino acid sequences for entries named in this document (tags omitted). A change or cut given only in a name is not applied to a line headed by its entry.
UniProt Q96KR1: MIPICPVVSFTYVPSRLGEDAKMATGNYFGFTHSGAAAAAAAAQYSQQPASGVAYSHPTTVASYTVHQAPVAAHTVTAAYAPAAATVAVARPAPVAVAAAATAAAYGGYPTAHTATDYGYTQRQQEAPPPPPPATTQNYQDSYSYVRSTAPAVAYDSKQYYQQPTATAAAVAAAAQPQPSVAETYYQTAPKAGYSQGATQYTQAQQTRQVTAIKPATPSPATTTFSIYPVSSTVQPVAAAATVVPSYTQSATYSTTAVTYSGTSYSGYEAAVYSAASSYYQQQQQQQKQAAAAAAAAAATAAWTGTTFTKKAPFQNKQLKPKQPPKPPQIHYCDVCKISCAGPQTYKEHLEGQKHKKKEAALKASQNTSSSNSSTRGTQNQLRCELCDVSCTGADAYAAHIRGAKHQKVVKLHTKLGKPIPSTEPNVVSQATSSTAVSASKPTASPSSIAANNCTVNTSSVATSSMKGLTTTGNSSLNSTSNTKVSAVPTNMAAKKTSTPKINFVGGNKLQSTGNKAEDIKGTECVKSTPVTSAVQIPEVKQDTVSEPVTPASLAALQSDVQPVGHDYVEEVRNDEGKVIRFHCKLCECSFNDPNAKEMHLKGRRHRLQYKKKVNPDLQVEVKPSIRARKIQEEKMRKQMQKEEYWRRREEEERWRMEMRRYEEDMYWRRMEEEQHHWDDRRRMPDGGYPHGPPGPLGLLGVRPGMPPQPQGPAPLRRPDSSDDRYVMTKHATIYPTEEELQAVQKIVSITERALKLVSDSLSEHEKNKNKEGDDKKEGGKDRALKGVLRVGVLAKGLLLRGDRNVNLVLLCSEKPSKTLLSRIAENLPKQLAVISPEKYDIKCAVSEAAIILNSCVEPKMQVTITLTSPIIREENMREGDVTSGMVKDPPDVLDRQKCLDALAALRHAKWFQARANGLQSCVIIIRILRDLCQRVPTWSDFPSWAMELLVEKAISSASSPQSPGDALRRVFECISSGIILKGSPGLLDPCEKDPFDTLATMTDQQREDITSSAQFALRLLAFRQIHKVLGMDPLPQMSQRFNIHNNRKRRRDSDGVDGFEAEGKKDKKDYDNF
UniProt Q96I24: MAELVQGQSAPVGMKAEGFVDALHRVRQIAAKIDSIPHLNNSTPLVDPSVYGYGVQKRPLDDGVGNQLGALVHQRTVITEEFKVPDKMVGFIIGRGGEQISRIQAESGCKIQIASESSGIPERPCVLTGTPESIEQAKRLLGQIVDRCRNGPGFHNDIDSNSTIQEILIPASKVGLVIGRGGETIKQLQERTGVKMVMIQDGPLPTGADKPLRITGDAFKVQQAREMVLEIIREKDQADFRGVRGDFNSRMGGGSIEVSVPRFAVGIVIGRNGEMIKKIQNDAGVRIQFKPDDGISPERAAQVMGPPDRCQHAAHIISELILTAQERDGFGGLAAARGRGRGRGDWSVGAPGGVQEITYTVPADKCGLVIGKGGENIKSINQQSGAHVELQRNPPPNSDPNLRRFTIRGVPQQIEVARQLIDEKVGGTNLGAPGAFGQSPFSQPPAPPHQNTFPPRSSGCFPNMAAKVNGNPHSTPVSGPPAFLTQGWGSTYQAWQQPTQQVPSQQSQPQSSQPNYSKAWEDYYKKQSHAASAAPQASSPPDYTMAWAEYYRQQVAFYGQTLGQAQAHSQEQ
UniProt Q96I23: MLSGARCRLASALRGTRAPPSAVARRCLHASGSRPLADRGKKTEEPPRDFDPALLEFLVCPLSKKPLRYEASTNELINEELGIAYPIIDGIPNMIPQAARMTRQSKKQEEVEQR
UniProt Q99832: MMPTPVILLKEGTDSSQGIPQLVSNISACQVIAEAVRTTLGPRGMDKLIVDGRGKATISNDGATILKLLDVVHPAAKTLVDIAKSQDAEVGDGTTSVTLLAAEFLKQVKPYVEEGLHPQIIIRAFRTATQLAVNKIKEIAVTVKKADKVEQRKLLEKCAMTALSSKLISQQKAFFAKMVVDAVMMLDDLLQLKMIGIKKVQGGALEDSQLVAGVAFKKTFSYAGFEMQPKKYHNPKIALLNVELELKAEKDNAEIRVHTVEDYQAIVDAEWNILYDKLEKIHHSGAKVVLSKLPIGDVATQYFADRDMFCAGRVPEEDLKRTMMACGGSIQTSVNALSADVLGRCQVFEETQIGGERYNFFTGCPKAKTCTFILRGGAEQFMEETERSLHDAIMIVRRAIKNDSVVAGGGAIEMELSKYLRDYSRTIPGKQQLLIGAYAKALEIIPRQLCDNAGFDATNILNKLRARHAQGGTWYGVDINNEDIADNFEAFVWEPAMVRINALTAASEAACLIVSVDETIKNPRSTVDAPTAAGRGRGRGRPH
UniProt Q99704: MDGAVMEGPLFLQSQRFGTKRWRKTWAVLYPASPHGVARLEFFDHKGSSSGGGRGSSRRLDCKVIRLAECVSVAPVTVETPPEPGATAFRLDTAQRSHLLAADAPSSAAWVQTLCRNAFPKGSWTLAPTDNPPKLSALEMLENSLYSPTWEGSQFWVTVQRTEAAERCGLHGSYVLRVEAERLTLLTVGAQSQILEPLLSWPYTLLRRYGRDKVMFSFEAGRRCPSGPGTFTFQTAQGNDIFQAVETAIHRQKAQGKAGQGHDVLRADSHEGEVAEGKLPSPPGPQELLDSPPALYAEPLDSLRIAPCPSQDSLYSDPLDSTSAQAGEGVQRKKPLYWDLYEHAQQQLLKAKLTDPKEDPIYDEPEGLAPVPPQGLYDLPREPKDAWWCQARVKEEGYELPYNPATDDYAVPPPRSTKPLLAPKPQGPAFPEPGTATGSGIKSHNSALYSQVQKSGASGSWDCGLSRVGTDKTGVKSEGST
UniProt Q96T76: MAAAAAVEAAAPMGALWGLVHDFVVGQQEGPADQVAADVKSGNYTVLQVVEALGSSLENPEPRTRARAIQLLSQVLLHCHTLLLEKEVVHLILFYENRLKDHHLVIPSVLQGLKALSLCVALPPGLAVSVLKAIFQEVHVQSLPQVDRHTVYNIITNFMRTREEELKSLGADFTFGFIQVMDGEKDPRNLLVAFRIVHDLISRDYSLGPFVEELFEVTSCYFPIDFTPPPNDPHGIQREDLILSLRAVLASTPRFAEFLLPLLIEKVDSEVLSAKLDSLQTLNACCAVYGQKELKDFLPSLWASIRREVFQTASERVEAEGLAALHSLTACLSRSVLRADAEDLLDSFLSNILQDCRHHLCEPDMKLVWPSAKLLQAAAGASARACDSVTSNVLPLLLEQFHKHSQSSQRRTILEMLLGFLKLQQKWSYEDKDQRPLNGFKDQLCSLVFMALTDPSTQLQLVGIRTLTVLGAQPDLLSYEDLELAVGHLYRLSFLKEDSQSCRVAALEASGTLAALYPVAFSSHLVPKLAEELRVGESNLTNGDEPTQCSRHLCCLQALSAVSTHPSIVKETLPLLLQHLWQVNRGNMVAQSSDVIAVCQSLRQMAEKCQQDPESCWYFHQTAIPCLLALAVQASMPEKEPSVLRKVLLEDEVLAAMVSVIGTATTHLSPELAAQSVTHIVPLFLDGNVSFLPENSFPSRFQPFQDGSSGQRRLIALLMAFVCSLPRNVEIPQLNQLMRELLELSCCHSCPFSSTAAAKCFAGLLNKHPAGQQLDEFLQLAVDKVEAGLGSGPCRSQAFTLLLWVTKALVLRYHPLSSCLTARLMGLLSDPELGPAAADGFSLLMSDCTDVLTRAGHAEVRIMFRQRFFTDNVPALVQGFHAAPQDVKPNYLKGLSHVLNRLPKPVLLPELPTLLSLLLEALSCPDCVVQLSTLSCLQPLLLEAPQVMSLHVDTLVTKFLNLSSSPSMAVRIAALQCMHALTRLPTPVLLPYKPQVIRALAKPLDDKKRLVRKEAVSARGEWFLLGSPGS
UniProt Q96KQ7: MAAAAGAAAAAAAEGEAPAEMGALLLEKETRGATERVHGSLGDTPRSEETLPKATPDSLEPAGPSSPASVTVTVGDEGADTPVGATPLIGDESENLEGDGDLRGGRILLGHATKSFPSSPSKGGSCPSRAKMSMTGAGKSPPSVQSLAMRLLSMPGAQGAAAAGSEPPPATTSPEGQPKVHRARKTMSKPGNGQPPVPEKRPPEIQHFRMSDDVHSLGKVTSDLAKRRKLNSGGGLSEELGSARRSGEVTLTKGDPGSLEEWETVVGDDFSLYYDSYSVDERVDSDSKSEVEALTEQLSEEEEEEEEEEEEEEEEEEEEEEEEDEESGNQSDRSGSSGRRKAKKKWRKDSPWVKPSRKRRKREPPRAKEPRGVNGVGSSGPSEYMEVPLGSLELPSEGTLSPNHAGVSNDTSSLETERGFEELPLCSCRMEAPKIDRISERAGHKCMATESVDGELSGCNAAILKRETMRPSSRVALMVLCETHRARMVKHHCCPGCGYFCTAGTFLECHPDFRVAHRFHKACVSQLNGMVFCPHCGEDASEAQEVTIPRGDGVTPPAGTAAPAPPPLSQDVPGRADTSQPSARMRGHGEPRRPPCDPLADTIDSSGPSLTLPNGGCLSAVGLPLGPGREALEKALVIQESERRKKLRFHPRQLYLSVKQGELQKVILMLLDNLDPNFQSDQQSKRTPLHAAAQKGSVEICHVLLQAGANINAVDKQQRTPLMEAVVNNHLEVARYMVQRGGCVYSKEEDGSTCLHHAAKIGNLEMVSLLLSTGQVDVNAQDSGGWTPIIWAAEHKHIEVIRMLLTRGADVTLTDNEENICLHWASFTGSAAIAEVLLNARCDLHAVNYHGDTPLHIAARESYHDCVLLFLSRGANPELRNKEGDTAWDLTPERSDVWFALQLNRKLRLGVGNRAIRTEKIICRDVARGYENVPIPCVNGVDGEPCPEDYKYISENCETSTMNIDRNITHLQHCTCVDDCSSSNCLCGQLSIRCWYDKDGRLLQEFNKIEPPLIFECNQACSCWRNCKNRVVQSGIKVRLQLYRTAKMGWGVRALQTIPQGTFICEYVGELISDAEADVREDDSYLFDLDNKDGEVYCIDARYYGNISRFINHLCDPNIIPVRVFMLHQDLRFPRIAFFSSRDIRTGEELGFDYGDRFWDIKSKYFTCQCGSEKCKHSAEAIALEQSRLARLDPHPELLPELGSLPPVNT
UniProt Q9BQ15: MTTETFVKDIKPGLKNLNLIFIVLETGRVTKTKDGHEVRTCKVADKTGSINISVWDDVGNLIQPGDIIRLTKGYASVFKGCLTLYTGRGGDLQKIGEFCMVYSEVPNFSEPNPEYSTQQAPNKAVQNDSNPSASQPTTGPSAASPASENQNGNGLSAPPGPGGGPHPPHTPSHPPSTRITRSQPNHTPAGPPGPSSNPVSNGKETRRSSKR
UniProt Q99755: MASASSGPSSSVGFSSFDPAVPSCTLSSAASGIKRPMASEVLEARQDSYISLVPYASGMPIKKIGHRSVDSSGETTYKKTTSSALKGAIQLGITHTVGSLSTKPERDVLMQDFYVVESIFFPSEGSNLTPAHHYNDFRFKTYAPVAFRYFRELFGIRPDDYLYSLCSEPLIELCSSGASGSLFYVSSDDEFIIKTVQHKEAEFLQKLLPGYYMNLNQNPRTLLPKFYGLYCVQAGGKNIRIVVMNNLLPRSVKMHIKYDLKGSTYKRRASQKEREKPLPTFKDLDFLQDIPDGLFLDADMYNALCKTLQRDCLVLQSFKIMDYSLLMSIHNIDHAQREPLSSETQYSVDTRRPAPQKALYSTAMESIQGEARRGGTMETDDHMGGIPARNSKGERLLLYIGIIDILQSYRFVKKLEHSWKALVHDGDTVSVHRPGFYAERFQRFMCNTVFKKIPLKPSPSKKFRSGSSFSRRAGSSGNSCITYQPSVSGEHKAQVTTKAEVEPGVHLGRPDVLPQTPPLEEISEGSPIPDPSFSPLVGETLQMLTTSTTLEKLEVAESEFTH
UniProt Q96PK6: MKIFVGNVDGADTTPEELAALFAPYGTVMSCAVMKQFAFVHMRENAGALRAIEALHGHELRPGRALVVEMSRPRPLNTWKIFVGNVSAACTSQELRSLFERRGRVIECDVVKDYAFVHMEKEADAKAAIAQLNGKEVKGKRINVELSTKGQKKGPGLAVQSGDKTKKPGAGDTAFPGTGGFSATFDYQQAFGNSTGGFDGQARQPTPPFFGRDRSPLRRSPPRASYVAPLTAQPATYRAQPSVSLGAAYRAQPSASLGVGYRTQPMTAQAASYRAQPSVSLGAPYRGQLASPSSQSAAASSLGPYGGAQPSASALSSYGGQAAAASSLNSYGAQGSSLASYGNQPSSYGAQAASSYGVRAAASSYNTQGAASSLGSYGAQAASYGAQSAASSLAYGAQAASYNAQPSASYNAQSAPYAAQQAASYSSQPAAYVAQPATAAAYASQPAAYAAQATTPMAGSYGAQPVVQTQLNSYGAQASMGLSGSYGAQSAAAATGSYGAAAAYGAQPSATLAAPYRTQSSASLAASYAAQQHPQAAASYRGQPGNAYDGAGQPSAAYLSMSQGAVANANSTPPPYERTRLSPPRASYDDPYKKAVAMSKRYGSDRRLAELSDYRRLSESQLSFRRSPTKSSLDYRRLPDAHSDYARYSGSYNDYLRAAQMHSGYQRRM

compound: COC(=O)C#Cc1ccccc1 [methyl 3-phenylpropiolate]; experiment: log2 ratio of iodoacetamide-alkyne labeling of the cysteine site, DMSO over compound (competition); higher = stronger covalent engagement of the cysteine by the compound, active = 1 or more; settings: 500 µM; treatment time 1 h; system: HEK293T cell lysate
How it was run: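 HEK293T lysate (2 mg/mL) was incubated with electrophile (500 µM) or vehicle for 1 h at ambient temperature and then with iodoacetamide alkyne for 1 h. Labelled proteins were clicked to sCIP-TMT reagents, pooled, digested, enriched on streptavidin and measured by Orbitrap Eclipse LC-MS/MS with FAIMS, with FragPipe quantification. The per-cysteine log2 competition ratio is mean control-channel reporter intensity over mean compound-channel reporter intensity. Across three replicates with duplicate channels, cysteines quantified in only one replicate were excluded.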

| Target | log2 ratio of iodoacetamide-alkyne labeling |
| --- | --- |
| RSF1 C1018 (UniProt Q96T23) | inactive: 0.251 |
| PTPN18 C310 (UniProt Q99952) | inactive: 0.235 |
| PPP1R10 C48 (UniProt Q96QC0) | inactive: 0.219 |
| PSMD1 C633 (UniProt Q99460) | inactive: 0.286 |
| ZFR C812 (UniProt Q96KR1) | inactive: 0.28 |
| UniProt Q96JG6_C136 | inactive: 0.554 |
| PARK7 C53 (UniProt Q99497) | inactive: -0.0888 |
| CNN2 C175 (UniProt Q99439) | active: 1.04 |
| FUBP3 C460 (UniProt Q96I24) | inactive: 0.36 |
| PYURF C60 (UniProt Q96I23) | inactive: 0.242 |
| OSBPL9 C720 (UniProt Q96SU4) | inactive: -0.0484 |
| RPRD1A C100 (UniProt Q96P16) | inactive: 0.124 |
| CCT7 C364 (UniProt Q99832) | inactive: 0.324 |
| DOK1 C224 (UniProt Q99704) | inactive: 0.25 |
| NACC1 C464 (UniProt Q96RE7) | inactive: 0.0219 |
| SPEN C877 (UniProt Q96T58) | inactive: 0.728 |
| ADO C239 (UniProt Q96SZ5) | inactive: 0.212 |
| DOCK7 C457 (UniProt Q96N67) | inactive: 0.309 |
| SEC22A C111 (UniProt Q96IW7) | inactive: 0.105 |

Nothing new here: an excerpt of the list.

| Target | log2 ratio of iodoacetamide-alkyne labeling |
| --- | --- |
| RSF1 C1018 (UniProt Q96T23) | inactive: 0.251 |
| PTPN18 C310 (UniProt Q99952) | inactive: 0.235 |
| PPP1R10 C48 (UniProt Q96QC0) | inactive: 0.219 |
| PSMD1 C633 (UniProt Q99460) | inactive: 0.286 |
| ZFR C812 (UniProt Q96KR1) | inactive: 0.28 |
| UniProt Q96JG6_C136 | inactive: 0.554 |
| PARK7 C53 (UniProt Q99497) | inactive: -0.0888 |
| CNN2 C175 (UniProt Q99439) | active: 1.04 |
| FUBP3 C460 (UniProt Q96I24) | inactive: 0.36 |
| PYURF C60 (UniProt Q96I23) | inactive: 0.242 |
| OSBPL9 C720 (UniProt Q96SU4) | inactive: -0.0484 |

Further records follow:

| Target | log2 ratio of iodoacetamide-alkyne labeling |
| --- | --- |
| MARK4 C216 (UniProt Q96L34) | inactive: 0.33 |
| MED15 C660 (UniProt Q96RN5) | inactive: 0.75 |
| MMS19 C723 (UniProt Q96T76) | inactive: -0.132 |
| EHMT2 C596 (UniProt Q96KQ7) | inactive: 0.247 |
| UniProt Q96JM3_C194 | inactive: 0.155 |
| NABP2 C99 (UniProt Q9BQ15) | inactive: 0.315 |
| PIP5K1A C480 (UniProt Q99755) | inactive: 0.429 |
| UniProt Q96JA1_C1066 | inactive: 0.118 |
| CCT7 C158 (UniProt Q99832) | inactive: 0.152 |
| RBM14 C90 (UniProt Q96PK6) | inactive: 0.108 |
| CCT7 C511 (UniProt Q99832) | inactive: -0.0842 |
| FUBP3 C310 (UniProt Q96I24) | inactive: 0.26 |
| TBCB C216 (UniProt Q99426) | inactive: 0.245 |
| SPAG5 C382 (UniProt Q96R06) | inactive: 0.73 |
| PGAM5 C168 (UniProt Q96HS1) | inactive: 0.007 |
| XPO6 C22 (UniProt Q96QU8) | inactive: 0.218 |
| SPAG5 C822 (UniProt Q96R06) | inactive: -0.122 |
| EHMT2 C1115 (UniProt Q96KQ7) | inactive: 0.617 |
